# Reference: PubChem BioAssay AID2685 (National Center for Advancing Translational Sciences (NCATS), 2010)
# Some of the results follow. Shown are side measurements of this screen, not its main read-out; they come without a call. The list favours compounds with an active or inconclusive main result. Words in brackets tell the shape of the fitted curve; partial curves, single points and poor fits give uncertain potencies.
# Test: qHTS Assay for Lipid Storage Modulators in Drosophila S3 Cells;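 for cell number change: cells counted by Cell Tracker Red CMTPX staining in the red channel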
# Conditions: BODIPY lipid droplet fluorescence, 18-24 h; for cell number change: measured here: cell count max response, cells fed with added oleic acid
# Summary of the method: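 Drosophila S3 cells got compounds at several concentrations plus oleic acid (400 uM solution). Laser-scanning cytometry with 488 nm excitation read lipid droplets at 500-530 nm and cells at 575-640 nm. Percent activity was relative to 20 uM Triacsin C.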
# [1] = measured here: lipid fluorescence (Fed channel) AC50, cells fed with added oleic acid
# [2] = measured here: cell number channel AC50, cells fed with added oleic acid
Structure (SMILES),cell number change [%],AC50 [1],AC50 [2]
COc1ccc(NC(=O)CSc2nc(N)c(NC(=O)c3ccccc3F)c(=O)[nH]2)cc1,27.2,"0.164 µM [rising, full curve, poor fit]",–
C=CCOc1ccc(/C=N/NC(=O)C(=O)Nc2ccccn2)cc1OC,–,"29.1 µM [rising, single point]",–
CCC(=O)Nc1nnc(S(=O)(=O)N(CC)c2ccc(OC)cc2)s1,1.42,–,–
CN(c1ccc(S(=O)(=O)N2CCOCC2)cn1)C1CCCCC1,31.2,"7.31 µM [rising, partial curve]","0.82 µM [rising, full curve]"
CC(=O)c1c(C)[nH]c(C(=O)COC(=O)c2cc(S(=O)(=O)N(C)c3ccccc3)ccc2Cl)c1C,28.7,–,–
COc1cccc(NC(=O)CN(C)C(=O)CC(NC(=O)c2ccccc2Cl)c2ccccc2)c1 (stereo not drawn),9.12,–,"0.517 µM [falling, single point]"
O=C(Nc1cccc2ccccc12)NC1CCCc2ccccc21 (stereo not drawn),25.9,–,"0.651 µM [rising, full curve, poor fit]"
Cc1cc2nnc(SCC(=O)Nc3cc(S(=O)(=O)N4CCOCC4)ccc3Cl)n2c2ccccc12,-7.11,"23.1 µM [falling, partial curve]",–
Cc1ccc(-c2cc(-c3nnc(SCC(=O)NC(C)C(C)C)n3N)c3ccccc3n2)cc1 (stereo not drawn),-0.446,"6.51 µM [rising, partial curve, poor fit]",–
Oc1ccc(/C=N/N2CCN(C3c4ccccc4-c4ccccc43)CC2)cc1,-35.6,"23.1 µM [falling, single point]","29.1 µM [falling, single point]"
O=C(Nc1cccnc1)C1OCCc2ccccc21 (stereo not drawn),-44.1,"3.66 µM [falling, full curve]","4.11 µM [falling, full curve]"
O=C(c1ccc(Br)o1)N1CCN=C1SCc1cccnc1,-1.2,–,–
Cc1ccc(NC(=S)c2nc3ccccc3[nH]2)cc1,-15.4,"23.1 µM [falling, partial curve]",–
COc1ccccc1Nc1nc(C)cc(C)n1,-1.06,–,–
CC(/C=C/c1ccco1)=N/NC(=O)c1ccccc1Cl,51,–,"29.1 µM [rising, single point]"
Cn1c(C(=O)N2CCN(c3nc4ccccc4s3)CC2)cc2sccc21,-5.95,"9.2 µM [rising, partial curve]",–
COc1cc(C=O)ccc1OS(=O)(=O)c1ccc(NC(C)=O)cc1,32.5,"2.91 µM [rising, single point]","0.082 µM [rising, full curve, poor fit]"
CCOc1ccccc1NC(=O)c1ccccc1N(C)S(C)(=O)=O,9.94,–,–
CN(Cc1nc2ccccc2c(=O)[nH]1)C(=O)c1ccc(S(=O)(=O)N2CCCC2)cc1,-15.3,"0.82 µM [falling, partial curve, poor fit]",–
C=C(C)Cc1c(C)c(C#N)c2nc3ccccc3n2c1N1CCCCC1,-67,–,"29.1 µM [falling, single point]"

# Single records, from the list above:
# CCC(=O)Nc1nnc(S(=O)(=O)N(CC)c2ccc(OC)cc2)s1 in the list: cell number change [%]: 1.42
# C=CCOc1ccc(/C=N/NC(=O)C(=O)Nc2ccccn2)cc1OC in the list: AC50 [1]: 29.1 µM [rising, single point]
# Cc1ccc(-c2cc(-c3nnc(SCC(=O)NC(C)C(C)C)n3N)c3ccccc3n2)cc1 (stereo not drawn) in the list: cell number change [%]: -0.446; AC50 [1]: 6.51 µM [rising, partial curve, poor fit]

# Later entries:

Structure (SMILES),cell number change [%],AC50 [1],AC50 [2]
C=CCNC(=O)CN1c2cccc3cccc(c23)S1(=O)=O,–,–,"0.0058 µM [rising, full curve, poor fit]"
O=C(N/N=C/c1c[nH]c2ccccc12)c1cccs1,11.8,"0.461 µM [rising, full curve, poor fit]",–
COc1ccc(/C=N/NC(=O)c2nonc2C)cc1,-109,"18.4 µM [falling, partial curve]","14.6 µM [falling, partial curve, poor fit]"
Cc1ccc(-c2ccc(=O)n(Cc3cccc(Br)c3)n2)cc1,9.93,–,"6.51 µM [rising, single point]"
CCN=C(NCC)SC1CC(=O)N(c2ccc(F)cc2)C1=O (stereo not drawn),-19.8,"0.58 µM [rising, single point]",–
Cc1cccc(Oc2nc3ccccn3c(=O)c2/C=C(\C#N)C(=O)NC2CCS(=O)(=O)C2)c1C (stereo not drawn),-8.57,–,–
O=C(Nc1nc(-c2ccccc2)cs1)c1ccccc1F,1.66,"29.1 µM [falling, single point]",–
C=C(CC)C(=O)c1ccc(OCC(=O)O)c(Cl)c1Cl,-57.7,"18.4 µM [falling, partial curve]","29.1 µM [falling, single point]"
O=C(COc1ccccc1[N+](=O)[O-])Nc1ccc(CN2CCOCC2)cc1,–,"6.51 µM [rising, partial curve, poor fit]","6.51 µM [rising, single point]"
CN1CCN(c2ccc(C(=O)c3ccc(Br)cc3)cc2[N+](=O)[O-])CC1,3.7,"2.91 µM [falling, single point]",–
COc1cccc(NC(=O)N2CCC(NC(=O)C3CCCCC3)CC2)c1,10.1,"0.00411 µM [falling, full curve, poor fit]",–
CCn1c(C)c(C)c2cc(C(=O)NCCCN3CCCCC3C)ccc21 (stereo not drawn),-5.13,"25.9 µM [rising, single point]",–
COc1ccc(CNC(=O)CS(=O)Cc2nc(-c3ccc(OC)c(OC)c3)oc2C)cc1 (stereo not drawn),–,"0.58 µM [rising, single point]",–
COc1ccc2ccn(S(=O)(=O)c3ccccc3)c2c1,16.7,–,–
COc1cccc(NC(=O)COc2nc3ccccc3nc2C)c1,31.5,"0.103 µM [rising, full curve]","0.291 µM [rising, full curve, poor fit]"
O=C1/C(=C/c2ccccn2)SC(=S)N1c1cccc(O)c1,-23.6,"2.59 µM [falling, partial curve]",–
Cc1ccc(NC(=O)CN2CCN(CCN=CC3=C(O)CC(C)(C)CC3=O)CC2)cc1,103,"0.231 µM [falling, single point]","18.4 µM [rising, partial curve]"
CCCCNS(=O)(=O)c1ccc2nc(SCC(=O)c3ccccc3OC)[nH]c2c1,2.62,"23.1 µM [falling, single point]","0.00517 µM [rising, full curve, poor fit]"
Cc1noc(C)c1COc1ccccc1C(=O)N1CCN(S(=O)(=O)c2ccccc2C(F)(F)F)CC1,45.9,–,"23.1 µM [rising, single point]"
CCC(C)NCCOc1ccc(C(C)(C)c2ccccc2)cc1 (stereo not drawn),-37.4,"20.6 µM [falling, single point]","16.4 µM [falling, single point]"

Structure (SMILES),cell number change [%],AC50 [1],AC50 [2]
O=c1c2c(nc3cc(-c4ccccc4Cl)[nH]n13)CCS2,-6.6,–,–
COc1cc(OC)c(C(=O)OCC(=O)Nc2c(C)n(C)n(-c3ccccc3)c2=O)cc1OC,-17.5,"0.00461 µM [falling, full curve, poor fit]",–
COC(=O)c1cn(Cc2ccccc2C)nn1,12,"29.1 µM [rising, single point]",–
COc1ccc(N(CC(=O)Nc2ccc(C)c(C)c2)S(=O)(=O)c2c(C)noc2C)cc1,-14.6,"1.84 µM [falling, partial curve, poor fit]",–
Cn1c(-c2ccc(C(F)(F)F)cc2)cc2onc(-c3ccccc3)c2c1=O,-13,"1.64 µM [rising, partial curve]",–
CC(C)(C)NS(=O)(=O)c1ccc(CCC(=O)N2CCCCC2)cc1,-1.39,"6.51 µM [falling, single point]",–
Cc1csc(NC(=O)c2nc3nc(C)cc(C)n3n2)n1,-37.7,"0.366 µM [falling, full curve]","20.6 µM [falling, single point]"
Cc1ccccc1C(=O)NC1CCCN(Cc2ccccc2F)C1 (stereo not drawn),21.6,"8.2 µM [rising, partial curve]",–
Cc1ccc(NC(=O)CCn2nc(C)cc2C)cc1,55.1,"29.1 µM [rising, single point]","29.1 µM [rising, single point]"
CC(C)NC(=O)NC(=O)COC(=O)c1ccccc1O,-14.6,"4.61 µM [falling, partial curve, poor fit]",–
COCc1c(C(=O)N/N=C(\C)c2ccc(Cl)s2)nnn1-c1nonc1N,-28.6,–,–
COc1ccc(S(=O)(=O)c2nnn(-c3cccc(OC)c3)c2N)cc1,60.5,–,–
CCc1cc(=O)oc2cc(C)cc(OCC(=O)N3CCC[C@@H]3C(=O)O)c12,13.9,"29.1 µM [rising, partial curve, poor fit]",–
O=C(COc1ccc2ccccc2c1Br)Nc1ncn[nH]1,32.5,–,–
CCc1cc(-c2n[nH]c(C)c2-c2nc(C)cs2)c(O)cc1OC,-33.4,"29.1 µM [falling, single point]","16.4 µM [falling, single point]"
N/C(=N\OC(=O)CCc1ccccc1)c1ccccc1Cl,35.3,–,"20.6 µM [rising, single point]"
O=S(=O)(c1cccc(Cl)c1)N1CCCC1,-156,"6.51 µM [falling, single point]","6.51 µM [rising, single point]"
N#Cc1c(-c2ccccc2)cc(C2CC2)nc1N,-28.5,–,–
O=C(CSCC(=O)NC1CCCC1)Nc1ccccc1,–,"29.1 µM [rising, single point]",–
Cc1c(-c2nc(-c3cccnc3)no2)cccc1[N+](=O)[O-],–,"3.66 µM [falling, single point]","1.46 µM [falling, partial curve]"
